Experiment: RRT study: LC-MS/MS urinary proteomics, AKI after cardiac surgery, RRT vs No RRT
Set-up: species or system human
Settings: patients who did vs did not require RRT/dialysis; for Up or Down: direction of urinary abundance; for Mean Fold Change: read with the Up or Down column

Row | Molecule | Up or Down | Mean Fold Change
1 | Secretogranin-1 (protein, UniProt P05060 21-677, looked up) Secretogranin-1: MPVDNRNHNEGMVTRCIIEVLSNALSKSSAPPITPECRQVLKTSRKDVKDKETTENENTKFEVRLLRDPADASEAHESSSRGEAGAPGEEDIQGPTKADTEKWAEGGGHSRERADEPQWSLYPSDSQVSEEVKTRHSEKSQREDEEEEEGENYQKGERGEDSSEEKHLEEPGETQNAFLNERKQASAIKKEELVARSETHAAGHSQEKTHSREKSSQESGEETGSQENHPQESKGQPRSQEESEEGEEDATSEVDKRRTRPRHHHGRSRPDRSSQGGSLPSEEKGHPQEESEESNVSMASLGEKRDHHSTHYRASEEEPEYGEEIKGYPGVQAPEDLEWERYRGRGSEEYRAPRPQSEESWDEEDKRNYPSLELDKMAHGYGEESEEERGLEPGKGRHHRGRGGEPRAYFMSDTREEKRFLGEGHHRVQENQMDKARRHPQGAWKELDRNYLNYGEEGAPGKWQQQGDLQDTKENREEARFQDKQYSSHHTAEKRKRLGELFNPYYDPLQWKSSHFERRDNMNDNFLEGEEENELTLNEKNFFPEYNYDWWEKKPFSEDVNWGYEKRNLARVPKLDLKRQYDRVAQLDQLLHYRKKSAEFPDFYDSEEPVSTHQEAENEKDRADQTVLTEDEKKELENLAAMDLELQKIAEKFSQRG | Up | 1.244
2 | Semenogelin-2 (protein, UniProt Q02383 24-582, looked up) Semenogelin-2: QKGGSKGQLPSGSSQFPHGQKGQHYFGQKDQQHTKSKGSFSIQHTYHVDINDHDWTRKSQQYDLNALHKATKSKQHLGGSQQLLNYKQEGRDHDKSKGHFHMIVIHHKGGQAHHGTQNPSQDQGNSPSGKGLSSQCSNTEKRLWVHGLSKEQASASGAQKGRTQGGSQSSYVLQTEELVVNKQQRETKNSHQNKGHYQNVVDVREEHSSKLQTSLHPAHQDRLQHGPKDIFTTQDELLVYNKNQHQTKNLSQDQEHGRKAHKISYPSSRTEERQLHHGEKSVQKDVSKGSISIQTEEKIHGKSQNQVTIHSQDQEHGHKENKISYQSSSTEERHLNCGEKGIQKGVSKGSISIQTEEQIHGKSQNQVRIPSQAQEYGHKENKISYQSSSTEERRLNSGEKDVQKGVSKGSISIQTEEKIHGKSQNQVTIPSQDQEHGHKENKMSYQSSSTEERRLNYGGKSTQKDVSQSSISFQIEKLVEGKSQIQTPNPNQDQWSGQNAKGKSGQSADSKQDLLSHEQKGRYKQESSESHNIVITEHEVAQDDHLTQQYNEDRNPIST | Up | –
3 | Mucin-like protein 1 (protein, UniProt Q96DR8 21-90, looked up) Mucin-like protein 1: NPTTAAPADTYPATGPADDEAPDAETTAAATTATTAAPTTATTAASTTARKDIPVLPKWVGDLPNGRVCP | Up | 4.066
4 | Semenogelin-1 (protein, UniProt P04279 24-462, looked up) Semenogelin-1: QKGGSKGRLPSEFSQFPHGQKGQHYSGQKGKQQTESKGSFSIQYTYHVDANDHDQSRKSQQYDLNALHKTTKSQRHLGGSQQLLHNKQEGRDHDKSKGHFHRVVIHHKGGKAHRGTQNPSQDQGNSPSGKGISSQYSNTEERLWVHGLSKEQTSVSGAQKGRKQGGSQSSYVLQTEELVANKQQRETKNSHQNKGHYQNVVEVREEHSSKVQTSLCPAHQDKLQHGSKDIFSTQDELLVYNKNQHQTKNLNQDQQHGRKANKISYQSSSTEERRLHYGENGVQKDVSQSSIYSQTEEKAQGKSQKQITIPSQEQEHSQKANKISYQSSSTEERRLHYGENGVQKDVSQRSIYSQTEKLVAGKSQIQAPNPKQEPWHGENAKGESGQSTNREQDLLSHEQKGRHQHGSHGGLDIVIIEQEDDSDRHLAQHLNNDRNPLFT | Up | –
5 | Zymogen granule protein 16 homolog B (protein, UniProt Q96DA0 17-172, looked up) Pancreatic adenocarcinoma …: GKMYGPGGGKYFSTTEDYDHEITGLRVSVGLLLVKSVQVKLGDSWDVKLGALGGNTQEVTLQPGEYITKVFVAFQAFLRGMVMYTSKDRYFYFGKLDGQISSAYPSQEGQVLVGIYGQYQLLGIKSIGFEWNYPLEEPTTEPPVNLTYSANSPVGR | Up | 1.156
6 | Calreticulin (protein, UniProt P27797 18-417, looked up) Calreticulin: EPAVYFKEQFLDGDGWTSRWIESKHKSDFGKFVLSSGKFYGDEEKDKGLQTSQDARFYALSASFEPFSNKGQTLVVQFTVKHEQNIDCGGGYVKLFPNSLDQTDMHGDSEYNIMFGPDICGPGTKKVHVIFNYKGKNVLINKDIRCKDDEFTHLYTLIVRPDNTYEVKIDNSQVESGSLEDDWDFLPPKKIKDPDASKPEDWDERAKIDDPTDSKPEDWDKPEHIPDPDAKKPEDWDEEMDGEWEPPVIQNPEYKGEWKPRQIDNPDYKGTWIHPEIDNPEYSPDPSIYAYDNFGVLGLDLWQVKSGTIFDNFLITNDEAYAEEFGNETWGVTKAAEKQMKDKQDEEQRLKEEEEDKKRKEEEEAEDKEDDEDKDEDEEDEEDKEEDEEEDVPGQAKDEL | Up | –
7 | Flavin reductase (protein, UniProt P30043 2-206, looked up) Flavin reductase (NADPH): AVKKIAIFGATGQTGLTTLAQAVQAGYEVTVLVRDSSRLPSEGPRPAHVVVGDVLQAADVDKTVAGQDAVIVLLGTRNDLSPTTVMSEGARNIVAAMKAHGVDKVVACTSAFLLWDPTKVPPRLQAVTDDHIRMHKVLRESGLKYVAVMPPHIGDQPLTGAYTVTLDGRGPSRVISKHDLGHFMLRCLTTDEYDGHSTYPSHQYQ | Up | 1.039
8 | Bisphosphoglycerate mutase (protein, UniProt P07738 2-259, looked up) Bisphosphoglycerate mutase: SKYKLIMLRHGEGAWNKENRFCSWVDQKLNSEGMEEARNCGKQLKALNFEFDLVFTSVLNRSIHTAWLILEELGQEWVPVESSWRLNERHYGALIGLNREQMALNHGEEQVRLWRRSYNVTPPPIEESHPYYQEIYNDRRYKVCDVPLDQLPRSESLKDVLERLLPYWNERIAPEVLRGKTILISAHGNSSRALLKHLEGISDEDIINITLPTGVPILLELDENLRAVGPHQFLGDQEAIQAAIKKVEDQGKVKQAKK | Up | 4.091
9 | Cadherin-related family member 2 (protein, UniProt Q9BYE9 21-1310, looked up) Cadherin-related family …: NVAPKFLANMTSVILPEDLPVGAQAFWLVAEDQDNDPLTYGMSGPNAYFFAVTPKTGEVKLASALDYETLYTFKVTISVSDPYIQVQREMLVIVEDRNDNAPVFQNTAFSTSINETLPVGSVVFSVLAVDKDMGSAGMVVYSIEKVIPSTGDSEHLFRILANGSIVLNGSLSYNNKSAFYQLELKACDLGGMYHNTFTIQCSLPVFLSISVVDQPDLDPQFVREFYSASVAEDAAKGTSVLTVEAVDGDKGINDPVIYSISYSTRPGWFDIGADGVIRVNGSLDREQLLEADEEVQLQVTATETHLNIYGQEAKVSIWVTVRVMDVNDHKPEFYNCSLPACTFTPEEAQVNFTGYVDEHASPRIPIDDLTMVVYDPDKGSNGTFLLSLGGPDAEAFSVSPERAVGSASVQVLVRVSALVDYERQTAMAVQVVATDSVSQNFSVAMVTIHLRDINDHRPTFPQSLYVLTVPEHSATGSVVTDSIHATDPDTGAWGQITYSLLPGNGADLFQVDPVSGTVTVRNGELLDRESQAVYYLTLQATDGGNLSSSTTLQIHLLDINDNAPVVSGSYNIFVQEEEGNVSVTIQAHDNDEPGTNNSRLLFNLLPGPYSHNFSLDPDTGLLRNLGPLDREAIDPALEGRIVLTVLVSDCGEPVLGTKVNVTITVEDINDNLPIFNQSSYNFTVKEEDPGVLVGVVKAWDADQTEANNRISFSLSGSGANYFMIRGLVLGAGWAEGYLRLPPDVSLDYETQPVFNLTVSAENPDPQGGETIVDVCVNVKDVNDNPPTLDVASLRGIRVAENGSQHGQVAVVVASDVDTSAQLEIQLVNILCTKAGVDVGSLCWGWFSVAANGSVYINQSKAIDYEACDLVTLVVRACDLATDPGFQAYSNNGSLLITIEDVNDNAPYFLPENKTFVIIPELVLPNREVASVRARDDDSGNNGVILFSILRVDFISKDGATIPFQGVFSIFTSSEADVFAGSIQPVTSLDSTLQGTYQVTVQARDRPSLGPFLEATTTLNLFTVDQSYRSRLQFSTPKEEVGANRQAINAALTQATRTTVYIVDIQDIDSAARARPHSYLDAYFVFPNGSALTLDELSVMIRNDQDSLTQLLQLGLVVLGSQESQESDLSKQLISVIIGLGVALLLVLVIMTMAFVCVRKSYNRKLQAMKAAKEARKTAAGVMPSAPAIPGTNMYNTERANPMLNLPNKDLGLEYLSPSNDLDSVSVNSLDDNSVDVDKNSQEIKEHRPPHTPPEPDPEPLSVVLLGRQAGASGQLEGPSYTNAGLDTTDL | Up | 1.057
10 | Cadherin-11 (protein, UniProt P55287 54-796, looked up) Cadherin-11: GWVWNQFFVIEEYTGPDPVLVGRLHSDIDSGDGNIKYILSGEGAGTIFVIDDKSGNIHATKTLDREERAQYTLMAQAVDRDTNRPLEPPSEFIVKVQDINDNPPEFLHETYHANVPERSNVGTSVIQVTASDADDPTYGNSAKLVYSILEGQPYFSVEAQTGIIRTALPNMDREAKEEYHVVIQAKDMGGHMGGLSGTTKVTITLTDVNDNPPKFPQSVYQMSVSEAAVPGEEVGRVKAKDPDIGENGLVTYNIVDGDGMESFEITTDYETQEGVIKLKKPVDFETKRAYSLKVEAANVHIDPKFISNGPFKDTVTVKISVEDADEPPMFLAPSYIHEVQENAAAGTVVGRVHAKDPDAANSPIRYSIDRHTDLDRFFTINPEDGFIKTTKPLDREETAWLNITVFAAEIHNRHQEAKVPVAIRVLDVNDNAPKFAAPYEGFICESDQTKPLSNQPIVTISADDKDDTANGPRFIFSLPPEIIHNPNFTVRDNRDNTAGVYARRGGFSRQKQDLYLLPIVISDGGIPPMSSTNTLTIKVCGCDVNGALLSCNAEAYILNAGLSTGALIAILACIVILLVIVVLFVTLRRQKKEPLIVFEEEDVRENIITYDDEGGGEEDTEAFDIATLQNPDGINGFIPRKDIKPEYQYMPRPGLRPAPNSVDVDDFINTRIQEADNDPTAPPYDSIQIYGYEGRGSVAGSLSSLESATTDSDLDYDYLQNWGPRFKKLADLYGSKDTFDDDS | Up | 4.167
11 | Beta-microseminoprotein (protein, UniProt P08118 21-114, looked up) Beta-microseminoprotein: SCYFIPNEGVPGDSTRKCMDLKGNKHPINSEWQTDNCETCTCYETEISCCTLVSTPVGYDKDNCQRIFKKEDCKYIVVEKKDPKKTCSVSEWII | Up | 1.789
